Results as given in the supplement of paper PMC12823440, “Inhibitors supercharge kinase turnover through native proteolytic circuits” (Nature, 2025).
The other results are listed elsewhere or left out. Hit calls seldom repeat between salt and free forms of one compound.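 Kinases, fused to nanoluciferase, were expressed in K562 cells; luminescence was measured every 4 h from 2 to 18 h as percent of control (DMSO = 100%, positive control = 0%). A time point is decreased if signal falls significantly (2 sigma). Hits were called by the authors by a rule that is not shown; the count of time points alone does not decide it.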

Protein sequences, listed by entry. Tags and fused reporters are not part of them. Lines headed by an entry give the natural chain unless they say otherwise; changes in a name come on top.
UniProt P48729: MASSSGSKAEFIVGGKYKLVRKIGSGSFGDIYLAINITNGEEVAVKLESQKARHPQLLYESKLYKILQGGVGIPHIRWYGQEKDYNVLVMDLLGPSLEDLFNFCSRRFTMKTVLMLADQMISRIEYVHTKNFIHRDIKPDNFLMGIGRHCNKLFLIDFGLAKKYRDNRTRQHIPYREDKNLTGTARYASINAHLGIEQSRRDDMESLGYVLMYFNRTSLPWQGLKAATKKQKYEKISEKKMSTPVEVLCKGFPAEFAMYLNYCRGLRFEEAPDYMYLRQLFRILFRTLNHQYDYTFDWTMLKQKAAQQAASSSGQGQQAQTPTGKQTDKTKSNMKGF
UniProt P48730: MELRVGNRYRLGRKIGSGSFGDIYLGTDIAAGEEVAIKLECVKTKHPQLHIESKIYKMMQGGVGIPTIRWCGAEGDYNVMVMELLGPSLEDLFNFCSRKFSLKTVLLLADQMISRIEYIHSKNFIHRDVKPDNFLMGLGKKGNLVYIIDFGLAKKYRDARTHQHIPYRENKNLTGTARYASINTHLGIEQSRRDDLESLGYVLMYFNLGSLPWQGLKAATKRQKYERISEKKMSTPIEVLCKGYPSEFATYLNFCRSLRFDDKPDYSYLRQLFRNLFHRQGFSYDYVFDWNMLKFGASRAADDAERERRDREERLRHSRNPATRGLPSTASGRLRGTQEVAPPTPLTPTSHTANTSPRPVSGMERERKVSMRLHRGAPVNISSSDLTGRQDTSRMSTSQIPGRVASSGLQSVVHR
UniProt Q92630: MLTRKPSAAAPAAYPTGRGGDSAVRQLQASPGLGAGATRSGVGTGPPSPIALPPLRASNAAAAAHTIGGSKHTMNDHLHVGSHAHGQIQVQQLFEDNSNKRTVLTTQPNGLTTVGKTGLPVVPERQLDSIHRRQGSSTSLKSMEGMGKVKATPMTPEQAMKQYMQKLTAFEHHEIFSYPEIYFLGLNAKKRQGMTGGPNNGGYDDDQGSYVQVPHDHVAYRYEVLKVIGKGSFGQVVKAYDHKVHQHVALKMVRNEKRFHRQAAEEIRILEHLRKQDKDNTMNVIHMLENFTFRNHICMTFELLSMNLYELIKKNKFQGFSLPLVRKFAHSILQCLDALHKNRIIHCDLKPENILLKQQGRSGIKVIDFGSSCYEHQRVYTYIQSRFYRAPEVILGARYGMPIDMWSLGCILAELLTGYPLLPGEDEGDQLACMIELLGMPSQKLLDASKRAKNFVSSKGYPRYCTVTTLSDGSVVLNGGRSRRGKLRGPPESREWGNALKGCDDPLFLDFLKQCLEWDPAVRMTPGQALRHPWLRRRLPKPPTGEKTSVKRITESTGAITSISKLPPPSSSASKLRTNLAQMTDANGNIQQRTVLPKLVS
UniProt P29317, whole entry: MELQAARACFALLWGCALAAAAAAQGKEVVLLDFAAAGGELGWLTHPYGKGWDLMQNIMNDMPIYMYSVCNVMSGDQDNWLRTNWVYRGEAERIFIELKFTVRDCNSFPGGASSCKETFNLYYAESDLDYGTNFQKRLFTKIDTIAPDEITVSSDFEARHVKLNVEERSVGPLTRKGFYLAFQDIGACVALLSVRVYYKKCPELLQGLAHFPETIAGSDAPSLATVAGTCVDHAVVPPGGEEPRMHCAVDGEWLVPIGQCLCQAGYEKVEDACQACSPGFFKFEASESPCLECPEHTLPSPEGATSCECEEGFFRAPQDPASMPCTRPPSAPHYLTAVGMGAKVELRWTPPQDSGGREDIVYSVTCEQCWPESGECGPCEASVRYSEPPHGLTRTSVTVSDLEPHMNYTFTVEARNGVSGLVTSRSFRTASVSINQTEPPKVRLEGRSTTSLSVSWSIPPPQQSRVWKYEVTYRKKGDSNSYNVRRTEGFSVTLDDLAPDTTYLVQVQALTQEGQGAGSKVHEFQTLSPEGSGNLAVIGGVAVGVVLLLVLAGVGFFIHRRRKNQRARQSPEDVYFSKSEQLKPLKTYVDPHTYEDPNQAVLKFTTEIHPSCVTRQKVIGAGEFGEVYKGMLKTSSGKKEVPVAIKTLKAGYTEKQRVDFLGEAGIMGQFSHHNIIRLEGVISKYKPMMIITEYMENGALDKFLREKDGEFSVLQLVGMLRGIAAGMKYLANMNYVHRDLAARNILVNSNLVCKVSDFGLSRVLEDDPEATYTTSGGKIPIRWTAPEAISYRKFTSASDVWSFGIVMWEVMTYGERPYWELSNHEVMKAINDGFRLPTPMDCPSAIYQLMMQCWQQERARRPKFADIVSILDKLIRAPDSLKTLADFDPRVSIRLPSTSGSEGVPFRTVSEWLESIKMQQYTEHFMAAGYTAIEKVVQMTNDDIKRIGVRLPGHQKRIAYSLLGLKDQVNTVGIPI
UniProt P21860, whole entry: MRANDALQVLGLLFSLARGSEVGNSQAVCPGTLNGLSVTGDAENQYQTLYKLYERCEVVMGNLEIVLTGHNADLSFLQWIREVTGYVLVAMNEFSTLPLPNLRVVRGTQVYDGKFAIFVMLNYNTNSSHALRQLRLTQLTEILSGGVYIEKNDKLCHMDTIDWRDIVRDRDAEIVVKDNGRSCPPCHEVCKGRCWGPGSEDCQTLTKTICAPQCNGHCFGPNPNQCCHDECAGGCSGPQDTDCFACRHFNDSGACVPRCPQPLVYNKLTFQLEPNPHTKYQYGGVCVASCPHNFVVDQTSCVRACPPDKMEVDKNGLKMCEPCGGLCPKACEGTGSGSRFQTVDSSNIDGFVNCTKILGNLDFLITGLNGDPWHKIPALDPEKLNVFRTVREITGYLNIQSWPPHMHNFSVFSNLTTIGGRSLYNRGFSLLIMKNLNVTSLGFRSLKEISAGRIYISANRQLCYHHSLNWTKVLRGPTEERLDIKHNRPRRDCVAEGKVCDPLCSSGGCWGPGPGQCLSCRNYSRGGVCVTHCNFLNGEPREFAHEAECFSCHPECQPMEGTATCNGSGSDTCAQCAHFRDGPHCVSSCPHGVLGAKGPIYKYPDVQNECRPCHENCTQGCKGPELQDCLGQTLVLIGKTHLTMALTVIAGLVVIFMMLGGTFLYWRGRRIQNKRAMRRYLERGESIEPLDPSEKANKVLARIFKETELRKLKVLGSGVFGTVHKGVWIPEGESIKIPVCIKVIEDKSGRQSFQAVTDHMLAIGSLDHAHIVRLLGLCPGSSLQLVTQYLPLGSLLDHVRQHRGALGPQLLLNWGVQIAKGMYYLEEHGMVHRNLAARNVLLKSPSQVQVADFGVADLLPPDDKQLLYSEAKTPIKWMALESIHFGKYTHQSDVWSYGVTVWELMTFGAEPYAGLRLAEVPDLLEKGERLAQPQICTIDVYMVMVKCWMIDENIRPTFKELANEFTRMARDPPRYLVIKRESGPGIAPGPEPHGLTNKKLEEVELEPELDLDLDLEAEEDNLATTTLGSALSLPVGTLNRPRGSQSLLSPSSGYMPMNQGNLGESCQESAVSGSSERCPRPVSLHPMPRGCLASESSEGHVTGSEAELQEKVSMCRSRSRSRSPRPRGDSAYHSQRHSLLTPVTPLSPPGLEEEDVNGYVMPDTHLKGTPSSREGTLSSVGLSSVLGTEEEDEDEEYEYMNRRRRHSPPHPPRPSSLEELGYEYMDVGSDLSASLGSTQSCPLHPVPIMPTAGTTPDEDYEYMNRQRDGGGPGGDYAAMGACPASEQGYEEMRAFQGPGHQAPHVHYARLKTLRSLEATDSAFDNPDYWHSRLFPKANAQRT
UniProt O75460: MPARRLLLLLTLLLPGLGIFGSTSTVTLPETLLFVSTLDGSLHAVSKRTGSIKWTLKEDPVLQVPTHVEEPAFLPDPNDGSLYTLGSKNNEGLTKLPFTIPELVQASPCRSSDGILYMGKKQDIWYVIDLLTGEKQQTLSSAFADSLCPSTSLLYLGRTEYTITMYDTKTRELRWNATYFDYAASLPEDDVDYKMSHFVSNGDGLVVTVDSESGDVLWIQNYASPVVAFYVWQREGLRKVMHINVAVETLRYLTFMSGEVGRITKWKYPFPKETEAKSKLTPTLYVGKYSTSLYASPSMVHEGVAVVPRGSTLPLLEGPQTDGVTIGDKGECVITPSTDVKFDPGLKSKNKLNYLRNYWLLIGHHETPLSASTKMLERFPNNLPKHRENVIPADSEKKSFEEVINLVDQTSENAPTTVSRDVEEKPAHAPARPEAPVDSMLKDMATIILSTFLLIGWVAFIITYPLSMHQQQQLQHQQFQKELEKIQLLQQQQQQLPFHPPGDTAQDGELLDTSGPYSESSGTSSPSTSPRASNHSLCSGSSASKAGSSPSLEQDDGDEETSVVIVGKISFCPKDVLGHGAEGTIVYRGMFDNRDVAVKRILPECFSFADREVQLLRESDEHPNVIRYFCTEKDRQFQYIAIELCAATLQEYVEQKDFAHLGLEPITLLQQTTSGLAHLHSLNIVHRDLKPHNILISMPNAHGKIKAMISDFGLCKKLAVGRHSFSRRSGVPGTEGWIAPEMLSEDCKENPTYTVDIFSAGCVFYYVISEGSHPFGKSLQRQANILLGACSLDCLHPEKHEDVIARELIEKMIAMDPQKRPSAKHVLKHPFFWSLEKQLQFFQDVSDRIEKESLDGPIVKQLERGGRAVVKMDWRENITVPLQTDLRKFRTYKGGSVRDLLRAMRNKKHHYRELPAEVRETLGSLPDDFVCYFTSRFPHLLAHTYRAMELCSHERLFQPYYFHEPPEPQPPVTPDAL
UniProt P21802, whole entry, looked up: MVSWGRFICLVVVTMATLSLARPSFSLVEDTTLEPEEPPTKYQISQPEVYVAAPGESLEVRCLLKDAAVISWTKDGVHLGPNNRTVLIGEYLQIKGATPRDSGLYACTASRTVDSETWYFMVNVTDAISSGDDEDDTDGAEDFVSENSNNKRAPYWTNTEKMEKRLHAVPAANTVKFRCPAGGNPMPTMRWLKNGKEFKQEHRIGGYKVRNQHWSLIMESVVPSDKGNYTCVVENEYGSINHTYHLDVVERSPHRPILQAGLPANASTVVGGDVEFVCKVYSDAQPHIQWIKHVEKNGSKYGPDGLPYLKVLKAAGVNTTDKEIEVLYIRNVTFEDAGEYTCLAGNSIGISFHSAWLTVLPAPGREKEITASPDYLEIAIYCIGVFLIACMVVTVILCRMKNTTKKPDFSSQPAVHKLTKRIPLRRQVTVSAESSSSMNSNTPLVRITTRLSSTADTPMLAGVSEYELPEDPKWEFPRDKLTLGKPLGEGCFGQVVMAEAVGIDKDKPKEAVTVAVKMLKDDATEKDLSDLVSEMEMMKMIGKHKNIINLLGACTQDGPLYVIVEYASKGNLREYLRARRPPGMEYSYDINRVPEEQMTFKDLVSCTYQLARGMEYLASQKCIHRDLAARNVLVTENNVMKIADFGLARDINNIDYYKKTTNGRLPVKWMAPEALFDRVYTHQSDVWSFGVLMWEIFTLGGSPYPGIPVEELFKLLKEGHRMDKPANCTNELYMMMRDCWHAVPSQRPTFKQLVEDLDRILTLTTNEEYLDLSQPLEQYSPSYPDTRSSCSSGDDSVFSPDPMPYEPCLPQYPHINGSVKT
UniProt P22607, whole entry, looked up: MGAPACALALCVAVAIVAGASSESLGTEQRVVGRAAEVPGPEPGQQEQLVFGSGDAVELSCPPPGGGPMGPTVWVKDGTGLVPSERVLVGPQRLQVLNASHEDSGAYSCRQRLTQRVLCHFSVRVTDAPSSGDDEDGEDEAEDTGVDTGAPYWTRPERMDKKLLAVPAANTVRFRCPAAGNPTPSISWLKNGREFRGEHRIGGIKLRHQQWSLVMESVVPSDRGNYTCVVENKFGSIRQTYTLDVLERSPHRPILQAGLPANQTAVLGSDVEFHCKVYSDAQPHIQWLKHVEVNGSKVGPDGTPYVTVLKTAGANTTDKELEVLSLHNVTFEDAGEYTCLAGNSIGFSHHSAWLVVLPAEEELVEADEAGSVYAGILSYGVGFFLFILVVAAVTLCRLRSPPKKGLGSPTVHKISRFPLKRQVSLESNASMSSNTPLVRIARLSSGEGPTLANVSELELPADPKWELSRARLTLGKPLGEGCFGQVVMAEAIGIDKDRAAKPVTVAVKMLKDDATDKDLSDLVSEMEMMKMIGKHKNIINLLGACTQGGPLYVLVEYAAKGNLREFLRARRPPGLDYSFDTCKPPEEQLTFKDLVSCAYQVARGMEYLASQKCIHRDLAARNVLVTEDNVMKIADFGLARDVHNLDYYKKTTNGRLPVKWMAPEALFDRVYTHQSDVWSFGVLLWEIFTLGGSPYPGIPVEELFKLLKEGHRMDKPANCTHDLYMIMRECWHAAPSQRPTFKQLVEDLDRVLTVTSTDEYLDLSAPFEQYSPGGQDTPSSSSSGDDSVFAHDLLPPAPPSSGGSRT

Tests used:
Experiment in all cases: number of time points (of 5) at which kinase-Nluc abundance scored as decreased, DMSO-normalised (count); higher = more persistent destabilization
Settings in all cases: K562; 2-18 h
[1] = molecular target: CSNK1A1 (UniProt P48729)
[2] = molecular target: CSNK1D (UniProt P48730)
[3] = molecular target: DDR1 (UniProt Q08345)
[4] = molecular target: DYRK1B (UniProt Q9Y463)
[5] = molecular target: DYRK2 (UniProt Q92630)
[6] = molecular target: EGFR (UniProt P00533)
[7] = molecular target: EGFR_G719S (UniProt P00533)
[8] = molecular target: EGFR_G719S_T790M (UniProt P00533)
[9] = molecular target: EGFR_L718V (UniProt P00533)
[10] = molecular target: EGFR_L858R (UniProt P00533)
[11] = molecular target: EGFR_L861Q (UniProt P00533)
[12] = molecular target: EGFR_T790M (UniProt P00533)
[13] = molecular target: EPHA2 (UniProt P29317)
[14] = molecular target: ERBB3 (UniProt P21860)
[15] = molecular target: ERBB4_R711C (clone: ERBB4_mut) (UniProt Q15303)
[16] = molecular target: ERN1 (UniProt O75460)
[17] = molecular target: FGFR1 (UniProt P11362)
[18] = molecular target: FGFR2 (UniProt P21802)
[19] = molecular target: FGFR3 (UniProt P22607)
[20] = molecular target: FGR (UniProt P09769)

SMILES | number of time points [1] | number of time points [2] | number of time points [3] | number of time points [4] | number of time points [5] | number of time points [6] | number of time points [7] | number of time points [8] | number of time points [9] | number of time points [10] | number of time points [11] | number of time points [12] | number of time points [13] | number of time points [14] | number of time points [15] | number of time points [16] | number of time points [17] | number of time points [18] | number of time points [19] | number of time points [20]
Cc1cc([C@@H](C)Nc2ccccc2C(=O)O)c2nc(N3CCOCC3)cc(=O)n2c1 (10 µM) | 0 | 0 | 0 | 0 | 0 | 0 | 0 | 0 | 0 | 0 | 0 | 0 | 0 | 0 | 0 | 0 | 0 | 0 | 0 | 0
Cc1cc(C(=O)NOCCO)c(Nc2ccc(I)cc2F)n(C)c1=O (10 µM) | 0 | 0 | 0 | 0 | 0 | 0 | 0 | 1 | 0 | 1 | 2 | 0 | 0 | 2 | 1 | 0 | 0 | 2 | 0 | 0
Nc1[nH]nc2nc(-c3ccc(NS(=O)(=O)c4cc(Cl)ccc4Cl)cc3)cnc12 (10 µM) | 0 | 0 | 0 | 0 | 0 | 0 | 0 | 0 | 0 | 0 | 0 | 0 | 0 | 0 | 0 | 0 | 0 | 0 | 0 | 0
O=C(Nc1ccc(Cl)cc1)C1CCCN(C(=O)c2cc(C(F)(F)F)cc(C(F)(F)F)c2)C1 (stereo not given) (10 µM) | 2 | 0 | 5 | 0 | 0 | 2 | 1 | 0 | 0 | 0 | 0 | 0 | 0 | 0 | 0 | 0 | 0 | 1 | 0 | 0
C=CC(=O)Nc1cccc(Oc2nc(Nc3ccc(N4CCN(C)CC4)c(F)c3)nc3[nH]ccc23)c1 [Avitinib (maleate)] (2.5 µM) | 0 | 0 | 0 | 0 | 0 | 0 | 0 | 0 | 0 | 0 | 0 | 0 | 0 | 0 | 0 | 0 | 0 | 0 | 0 | 0
CC(C)(C)Cc1[nH]nc2c1[C@@](C)(c1ccccc1)C1=C(CC(C)(C)CC1=O)N2 (10 µM) | 0 | 0 | 0 | 0 | 0 | 0 | 0 | 0 | 0 | 0 | 0 | 0 | 0 | 0 | 0 | 0 | 0 | 0 | 0 | 0
NC(=O)c1cnc(-c2ccc(C3(N)CCC3)cc2)c(-c2ccccc2)c1 (10 µM) | 0 | 0 | 0 | 0 | 0 | 0 | 0 | 0 | 0 | 0 | 0 | 0 | 0 | 0 | 0 | 0 | 0 | 0 | 0 | 0
CC(C)=CC[C@@H](O)C1=CC(=O)c2c(O)ccc(O)c2C1=O [Shikonin] (10 µM) | 0 | 0 | 0 | 0 | 0 | 0 | 0 | 0 | 0 | 0 | 0 | 0 | 0 | 0 | 0 | 0 | 0 | 0 | 0 | 0
Cn1c(CNc2cccc(C(=O)NCc3ccccc3C(F)(F)F)c2)nnc1-c1ccncc1 (10 µM) | 0 | 0 | 0 | 0 | 0 | 0 | 0 | 0 | 0 | 0 | 0 | 0 | 0 | 0 | 0 | 0 | 0 | 0 | 0 | 0
Cc1nc[nH]c1CN1CCN(C(=O)N[C@@H](CC(C)C)C(=O)O)[C@@H](Cc2ccccc2)C1=O (10 µM) | 0 | 0 | 0 | 0 | 0 | 0 | 0 | 0 | 0 | 0 | 0 | 0 | 0 | 0 | 0 | 0 | 0 | 0 | 0 | 0
Brc1ccc(CSc2nc3ccccc3o2)cc1 [BMP signaling agonist sb4] (10 µM) | 0 | 0 | 0 | 0 | 0 | 0 | 0 | 0 | 0 | 0 | 0 | 0 | 0 | 0 | 0 | 0 | 0 | 0 | 0 | 0
O=C1Nc2ccc(I)cc2/C1=C/c1cc(Br)c(O)c(Br)c1 (10 µM) | 3 | 2 | 0 | 0 | 0 | 2 | 3 | 0 | 0 | 0 | 0 | 0 | 2 | 0 | 0 | 0 | 0 | 0 | 0 | 0
CN1CCN(c2ccc(Nc3ncc4cc(C#N)c(=O)n(C5CCCC5)c4n3)cc2)CC1 (10 µM) | 0 | 0 | 0 | 0 | 0 | 0 | 0 | 0 | 0 | 0 | 0 | 0 | 0 | 0 | 0 | 0 | 0 | 0 | 0 | 0
COc1cc2cc(Oc3ccc4ccc(=O)oc4c3)c(=O)oc2cc1O [Daphnoretin] (10 µM) | 2 | 0 | 0 | 0 | 0 | 0 | 0 | 0 | 0 | 0 | 0 | 0 | 0 | 0 | 0 | 0 | 0 | 0 | 0 | 0
Nc1nc(NCCNc2ncc(-n3ccnc3)c(-c3ccc(Cl)cc3Cl)n2)ccc1[N+](=O)[O-] (2.5 µM) | 0 | 1 | 0 | 0 | 0 | 0 | 5 | 0 | 0 | 0 | 0 | 0 | 1 | 1 | 0 | 0 | 1 | 0 | 0 | 0
Nc1ncc(C(=O)NC2CN(C(=O)C3CC3)C2)c2ccc(-c3cccc(F)c3)nc12 (2 µM) | 0 | 0 | 0 | 0 | 0 | 0 | 0 | 0 | 0 | 0 | 0 | 0 | 0 | 0 | 0 | 0 | 0 | 0 | 0 | 0
Cc1cccc(/C=N/Nc2cc(N3CCOCC3)n3nc(-c4ccncc4)cc3n2)c1 (10 µM) | 0 | 0 | 0 | 0 | 1 | 0 | 0 | 0 | 0 | 0 | 0 | 0 | 0 | 0 | 0 | 0 | 0 | 0 | 0 | 0
COc1ccc(S(=O)(=O)Nc2cc(-c3c(O)ccc4ccccc34)c(O)c3ccccc23)cc1 (10 µM) | 0 | 0 | 0 | 0 | 0 | 0 | 0 | 0 | 0 | 0 | 0 | 0 | 0 | 1 | 0 | 0 | 0 | 0 | 0 | 0
COc1c(O)cc2oc(-c3ccc(O)cc3)cc(=O)c2c1O [Hispidulin] (10 µM) | 0 | 0 | 0 | 0 | 0 | 0 | 0 | 0 | 0 | 0 | 0 | 0 | 0 | 0 | 0 | 0 | 0 | 0 | 0 | 0
COc1cc2c(cc1OC)/C(=C/c1ccc(O)cc1)C(=O)N2 (10 µM) | 0 | 0 | 0 | 0 | 0 | 0 | 0 | 0 | 0 | 0 | 0 | 0 | 0 | 0 | 0 | 0 | 0 | 0 | 0 | 0
CC1CN(CC2CCN(Cc3ccccc3)CC2)C(=O)N(c2cccc(C(=N)N)c2)C1 (stereo not given) (10 µM) | 0 | 0 | 0 | 0 | 0 | 0 | 0 | 0 | 0 | 0 | 0 | 0 | 0 | 0 | 0 | 0 | 0 | 0 | 0 | 0
Nc1ncc(-c2ccnc(Nc3ccncc3)n2)c(CC2CC2)n1 (10 µM) | 0 | 0 | 1 | 0 | 0 | 0 | 0 | 0 | 0 | 0 | 2 | 0 | 0 | 0 | 0 | 0 | 0 | 1 | 0 | 0
CC(C)n1ncnc1-c1cn2c(n1)-c1ccc(O[C@@H](C)C(N)=O)cc1OCC2 (10 µM) | 0 | 0 | 0 | 0 | 0 | 0 | 0 | 0 | 0 | 0 | 0 | 0 | 0 | 0 | 0 | 0 | 0 | 0 | 0 | 0

Looked up above:
In number of time points [13], `COc1cc2c(cc1OC)/C(=C/c1ccc(O)cc1)C(=O)N2` (10 µM) reads 0
In number of time points [2], `COc1cc2cc(Oc3ccc4ccc(=O)oc4c3)c(=O)oc2cc1O` [Daphnoretin] (10 µM) reads 0
